Results reported in patent publication US20180371095A1.
These are yes or no findings as the source states them, for the method shown. Some results given as binding are weak or reduced against the parent protein; the word gives no strength.

Amino acid sequences for entries named in this document (tags omitted). Residues count along the entry.
UniProt Q9Y279, residues 20-399: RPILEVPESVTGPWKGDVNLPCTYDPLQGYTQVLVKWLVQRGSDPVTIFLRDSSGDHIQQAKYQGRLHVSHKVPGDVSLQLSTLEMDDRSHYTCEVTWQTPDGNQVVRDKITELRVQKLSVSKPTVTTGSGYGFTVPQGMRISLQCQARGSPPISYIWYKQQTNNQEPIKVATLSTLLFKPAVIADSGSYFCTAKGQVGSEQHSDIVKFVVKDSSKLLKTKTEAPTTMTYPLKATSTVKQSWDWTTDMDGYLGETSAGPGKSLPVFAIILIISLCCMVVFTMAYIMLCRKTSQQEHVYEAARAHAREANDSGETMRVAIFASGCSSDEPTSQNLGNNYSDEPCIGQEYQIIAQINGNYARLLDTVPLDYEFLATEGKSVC
UniProt Q9Y286, residues 19-357: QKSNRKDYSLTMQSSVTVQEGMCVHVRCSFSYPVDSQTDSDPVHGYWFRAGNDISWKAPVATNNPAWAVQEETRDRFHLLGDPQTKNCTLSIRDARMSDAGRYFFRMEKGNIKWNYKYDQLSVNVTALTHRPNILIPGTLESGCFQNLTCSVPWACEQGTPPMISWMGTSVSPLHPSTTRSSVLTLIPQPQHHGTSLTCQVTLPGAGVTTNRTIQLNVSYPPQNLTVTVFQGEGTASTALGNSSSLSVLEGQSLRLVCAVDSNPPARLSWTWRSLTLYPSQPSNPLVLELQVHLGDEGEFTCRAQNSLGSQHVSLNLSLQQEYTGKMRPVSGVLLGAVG

What was measured:
[1] = target: human VSIG-4 (hVSIG4)/eGFP HEK transfectants (human) (UniProt Q9Y279); assay: flow cytometry
[2] = target: human VSIG-4 (hVSIG4)/eGFP HEK transfectants (human) (UniProt Q9Y279); assay: flow cytometry, 500 ng/mL to 6 ug/mL
[3] = target: human VSIG-4 (hVSIG4)/eGFP HEK transfectants (human) (UniProt Q9Y279); assay: flow cytometry, anti-Fc APC detection
[4] = target: human VSIG-4 (hVSIG4)/eGFP HEK transfectants (human) (UniProt Q9Y279); assay: flow cytometry, titration on VSIG-4 transfected cells
[5] = target: human VSIG-4 (hVSIG4)/eGFP HEK transfectants (human) (UniProt Q9Y279); assay: flow cytometry, 2 ug/mL rhSiglec-7/Fc plus anti-Fc APC
[6] = target: naturally expressed VSIG-4 on M2c macrophages (human) (UniProt Q9Y279); assay: flow cytometry, 1 ug/mL to 10 ug/mL, anti-Fc PE detection

binding [1]: binds | binding [2]: binds | binding [3]: binds | binding [4]: binds | binding [5]: binds | binding [6]: binds
Substance: recombinant human Siglec-7 (rhSiglec-7)/Fc protein (from UniProt Q9Y286 19-357) (Fc fusion)
